The target in the assay is T1, AtARP4 fused to nEYFP or cEYFP (Arabidopsis thaliana) (UniProt Q84M92).
T1 sequence: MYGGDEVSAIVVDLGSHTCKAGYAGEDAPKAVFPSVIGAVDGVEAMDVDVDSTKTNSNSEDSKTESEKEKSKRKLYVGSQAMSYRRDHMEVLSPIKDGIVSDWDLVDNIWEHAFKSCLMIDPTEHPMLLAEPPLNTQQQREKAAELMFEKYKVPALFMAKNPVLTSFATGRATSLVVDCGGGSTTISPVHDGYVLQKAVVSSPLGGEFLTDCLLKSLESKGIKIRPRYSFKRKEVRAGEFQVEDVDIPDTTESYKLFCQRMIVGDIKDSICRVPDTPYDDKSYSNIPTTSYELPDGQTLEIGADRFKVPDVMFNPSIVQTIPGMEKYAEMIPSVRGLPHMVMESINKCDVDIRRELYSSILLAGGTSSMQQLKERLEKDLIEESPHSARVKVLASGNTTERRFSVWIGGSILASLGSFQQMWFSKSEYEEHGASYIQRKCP
Kind of assay: split reporter; BiFC in Arabidopsis mesophyll protoplasts; proteins fused to the N-terminus of nEYFP and cEYFP; ECFP as transfection control; overnight incubation, confocal microscopy.

No constants are given. Whether binding was seen depends on the method and setting. Binding seen in cells or lysates may run through a third protein. Sequences can lack the tags named with a protein.

B1: AtYAF9B (longer splice variant) fused to nEYFP or cEYFP (protein, UniProt F4IPK2 1-268)
chain: MESDIEILSEADASMRKLRIFGIDDREDENGRRRIKDVEVYVPIVCGSIAFYLGKKATEYRTHKWTVYVRGATNEDLGVVIKRVIFHLHPSFNNPTRVVDAPPFALSECGWGEFKIDITVFFHTDVCEKKLELSHVLKLNPENAYGPIPKSIKIPVVAESYNEVVFPDPFESFVARVHNHPAIQISNIPDGLNLPPPGVADTYYLMEKGDTKEHPLSPWFLKFSEVEELFKLTAARQKVQADIAKLKRQLIMVDGQPEGLESSSGYEC
As for B1, the binding result is recorded as “no binding”.

These data come from publication PMC4358907.
